Measurements from PubChem BioAssay AID248 (DTP/NCI, 2004).
The list shows only some results of the screen, not a fair sample: it gathers tests that were run many times, whatever their T/C, doses with no T/C, and many T/C values between a quarter and a half above the control. Other doses and runs of a compound stand elsewhere. T/C: endpoint of the treated group in % of that of the vehicle group. Some doses have a count of surviving animals in place of a T/C: the source holds a T/C of zero for them, seemingly a mark for toxic or unscored doses. Some doses without a T/C left all or most animals alive at the check, yet need not have been tolerated: survival well below the control is almost never listed, so the zero probably covers shortened survival too. Counts of survivors are from the toxicity check (mostly the fifth day) where no day follows; animals may have died later. Schedule codes are those of the source, read here as Q, the interval in days (D) or hours (H), X, the number of doses. Some schedule codes hold Z or #, which are not explained here.

Test system: L1210 leukemia ip in BDF1 mice, survival T/C
Assay: NCI In Vivo Anticancer Drug Screen. Data for tumor model L1210 Leukemia (intraperitoneal) in B6D2F1 (BDF1) mice
Conditions: T/C endpoint: mean survival time, higher T/C = longer survival
[1] = dose: 400.0 mg/kg/injection, schedule: Q04DX003 (ip), vehicle: saline
[2] = dose: 400.0 mg/kg/injection, schedule: Q01DX001 (ip), vehicle: saline
[3] = dose: 50.0 mg/kg/injection, schedule: Q01DX009 (ip), vehicle: Klucel (hydroxypropylcellulose) (HPC)
[4] = dose: 100.0 mg/kg/injection, schedule: Q01DX009 (ip), vehicle: Klucel (hydroxypropylcellulose) (HPC)
[5] = dose: 200.0 mg/kg/injection, schedule: Q01DX009 (ip), vehicle: Klucel (hydroxypropylcellulose) (HPC)
[6] = dose: 400.0 mg/kg/injection, schedule: Q04DX003 (ip), vehicle: Klucel (hydroxypropylcellulose) (HPC)
[7] = dose: 400.0 mg/kg/injection, schedule: Q01DX009 (ip), vehicle: Klucel (hydroxypropylcellulose) (HPC)

COc1cc(Cc2c3cc4c(cc3cc[n+]2C)OCO4)c(Oc2cc(Cc3c4cc5c(cc4cc[n+]3C)OCO5)ccc2OC)cc1OC
survivor count (dose: 12.5 mg/kg/injection, schedule: Q04DX003 (ip), vehicle: saline with Tween-80): 1 of 6 | survivor count (dose: 25.0 mg/kg/injection, schedule: Q04DX003 (ip), vehicle: saline with Tween-80): 2 of 6 | survivor count (dose: 50.0 mg/kg/injection, schedule: Q04DX003 (ip), vehicle: saline with Tween-80): 0 of 6 | survivor count (dose: 100.0 mg/kg/injection, schedule: Q04DX003 (ip), vehicle: saline): 0 of 6 | survivor count (dose: 200.0 mg/kg/injection, schedule: Q04DX003 (ip), vehicle: saline): 0 of 6 | survivor count [1]: 0 of 6

O=C(O)C12C3(Cl)C4(Cl)C5(OCCO5)C5(Cl)C3(Cl)C1(Cl)C5(Cl)C42Cl (stereo unspecified)
survivor count [2]: 0 of 4

CN(C)C(=O)c1cc(NC(=O)Nc2cccc(C3=NCCN3)c2)cc(NC(=O)Nc2cccc(C3=NCCN3)c2)c1
survivor count (dose: 15.0 mg/kg/injection, schedule: Q01DX Z (ip), vehicle: saline): 0 of 6 | survivor count (dose: 30.0 mg/kg/injection, schedule: Q01DX Z (ip), vehicle: saline): 0 of 6 | survivor count (dose: 60.0 mg/kg/injection, schedule: Q01DX Z (ip), vehicle: saline): 0 of 6 | survivor count (dose: 120.0 mg/kg/injection, schedule: Q01DX Z (ip), vehicle: saline): 0 of 6

COc1ccc(C(=O)NN2C(N)=NC(N)=NC2(C)C)cc1
survivor count [1]: 0 of 6

N#CC12C(=N)CCC1C1C=CC2C1 (stereo unspecified)
survivor count (dose: 25.0 mg/kg/injection, schedule: Q01DX009 (ip), vehicle: Klucel (hydroxypropylcellulose) (HPC)): 1 of 6 | survivor count [3]: 0 of 6 | survivor count [4]: 0 of 6 | survivor count [5]: 0 of 6 | survivor count [6]: 0 of 6

CN/N=C/c1ccc(C(=O)NC(C)C)cc1
survivor count [6]: 3 of 6

CNC(=S)N/N=C/C(C)=N/NC(=S)NC
survivor count (dose: 1.0 micrograms/kg/injection, schedule: Q01DX009 (ip), vehicle: carboxymethylcellulose (CMC)): 0 of 6 | survivor count (dose: 5.0 micrograms/kg/injection, schedule: Q01DX009 (ip), vehicle: carboxymethylcellulose (CMC)): 0 of 6 | survivor count (dose: 10.0 micrograms/kg/injection, schedule: Q01DX009 (ip), vehicle: carboxymethylcellulose (CMC)): 0 of 6 | survivor count (dose: 50.0 micrograms/kg/injection, schedule: Q01DX009 (ip), vehicle: carboxymethylcellulose (CMC)): 0 of 6

CCNC(C)(C)C(SSSC(c1ccc(Cl)cc1)C(C)(C)NCC)c1ccc(Cl)cc1 (stereo unspecified)
survivor count (dose: 50.0 mg/kg/injection, schedule: Q01DX009 (ip), vehicle: other): 6 of 6 | survivor count [5]: 0 of 6 | survivor count (dose: 200.0 mg/kg/injection, schedule: Q01DX009 (ip), vehicle: other): 0 of 6

CN(C)CCCN1CC2C3CCCCC3=C3CCCCC3C2C1 (stereo unspecified)
survivor count (dose: 100.0 mg/kg/injection, schedule: Q01DX001 (ip), vehicle: saline): 2 of 4 | survivor count (dose: 200.0 mg/kg/injection, schedule: Q01DX001 (ip), vehicle: saline): 0 of 4 | survivor count [2]: 0 of 4

CCCCCCCc1nc(N)c(C(N)=O)[nH]1
survivor count (dose: 200.0 mg/kg/injection, schedule: Q01DX001 (ip), vehicle: saline with Tween-80): 1 of 6 | survivor count (dose: 400.0 mg/kg/injection, schedule: Q01DX001 (ip), vehicle: saline with Tween-80): 0 of 6

S=c1nc2[nH]c3ccccc3c2n[nH]1
survivor count (dose: 400.0 mg/kg/injection, schedule: Q04DX003 (ip), vehicle: saline with Tween-80): 6 of 6

CC(C)c1ccc(N2C(=O)C=CC2=O)cc1
survivor count [3]: 0 of 6 | survivor count [4]: 0 of 6 | survivor count [5]: 0 of 6 | survivor count [7]: 0 of 6

CC(=O)Nc1ccc(OC(=O)Nc2cc(C(F)(F)F)ccc2Cl)cc1
survivor count [7]: 5 of 6

Nc1ccc2c(c1)-c1ccccc1C1=NCCN12
survivor count (dose: 40.0 mg/kg/injection, schedule: Q04DX003 (ip), vehicle: Klucel (hydroxypropylcellulose) (HPC)): 6 of 6 | survivor count (dose: 80.0 mg/kg/injection, schedule: Q04DX003 (ip), vehicle: Klucel (hydroxypropylcellulose) (HPC)): 0 of 6 | survivor count (dose: 100.0 mg/kg/injection, schedule: Q04DX003 (ip), vehicle: Klucel (hydroxypropylcellulose) (HPC)): 0 of 6 | survivor count (dose: 200.0 mg/kg/injection, schedule: Q04DX003 (ip), vehicle: Klucel (hydroxypropylcellulose) (HPC)): 0 of 6 | survivor count [6]: 0 of 6

Nc1cc2ncccc2c2ncccc12
survivor count (dose: 300.0 mg/kg/injection, schedule: Q01DX001 (ip), vehicle: saline): 1 of 6

CN(C)C(=S)c1ccc(Cl)cc1
survivor count [3]: 2 of 6 | survivor count [4]: 0 of 6 | survivor count [5]: 0 of 6 | survivor count [7]: 0 of 6
